{"sequences": {"note": "Protein sequences, listed by entry. Tags and fused reporters are not part of them.", "UniProt P38398": "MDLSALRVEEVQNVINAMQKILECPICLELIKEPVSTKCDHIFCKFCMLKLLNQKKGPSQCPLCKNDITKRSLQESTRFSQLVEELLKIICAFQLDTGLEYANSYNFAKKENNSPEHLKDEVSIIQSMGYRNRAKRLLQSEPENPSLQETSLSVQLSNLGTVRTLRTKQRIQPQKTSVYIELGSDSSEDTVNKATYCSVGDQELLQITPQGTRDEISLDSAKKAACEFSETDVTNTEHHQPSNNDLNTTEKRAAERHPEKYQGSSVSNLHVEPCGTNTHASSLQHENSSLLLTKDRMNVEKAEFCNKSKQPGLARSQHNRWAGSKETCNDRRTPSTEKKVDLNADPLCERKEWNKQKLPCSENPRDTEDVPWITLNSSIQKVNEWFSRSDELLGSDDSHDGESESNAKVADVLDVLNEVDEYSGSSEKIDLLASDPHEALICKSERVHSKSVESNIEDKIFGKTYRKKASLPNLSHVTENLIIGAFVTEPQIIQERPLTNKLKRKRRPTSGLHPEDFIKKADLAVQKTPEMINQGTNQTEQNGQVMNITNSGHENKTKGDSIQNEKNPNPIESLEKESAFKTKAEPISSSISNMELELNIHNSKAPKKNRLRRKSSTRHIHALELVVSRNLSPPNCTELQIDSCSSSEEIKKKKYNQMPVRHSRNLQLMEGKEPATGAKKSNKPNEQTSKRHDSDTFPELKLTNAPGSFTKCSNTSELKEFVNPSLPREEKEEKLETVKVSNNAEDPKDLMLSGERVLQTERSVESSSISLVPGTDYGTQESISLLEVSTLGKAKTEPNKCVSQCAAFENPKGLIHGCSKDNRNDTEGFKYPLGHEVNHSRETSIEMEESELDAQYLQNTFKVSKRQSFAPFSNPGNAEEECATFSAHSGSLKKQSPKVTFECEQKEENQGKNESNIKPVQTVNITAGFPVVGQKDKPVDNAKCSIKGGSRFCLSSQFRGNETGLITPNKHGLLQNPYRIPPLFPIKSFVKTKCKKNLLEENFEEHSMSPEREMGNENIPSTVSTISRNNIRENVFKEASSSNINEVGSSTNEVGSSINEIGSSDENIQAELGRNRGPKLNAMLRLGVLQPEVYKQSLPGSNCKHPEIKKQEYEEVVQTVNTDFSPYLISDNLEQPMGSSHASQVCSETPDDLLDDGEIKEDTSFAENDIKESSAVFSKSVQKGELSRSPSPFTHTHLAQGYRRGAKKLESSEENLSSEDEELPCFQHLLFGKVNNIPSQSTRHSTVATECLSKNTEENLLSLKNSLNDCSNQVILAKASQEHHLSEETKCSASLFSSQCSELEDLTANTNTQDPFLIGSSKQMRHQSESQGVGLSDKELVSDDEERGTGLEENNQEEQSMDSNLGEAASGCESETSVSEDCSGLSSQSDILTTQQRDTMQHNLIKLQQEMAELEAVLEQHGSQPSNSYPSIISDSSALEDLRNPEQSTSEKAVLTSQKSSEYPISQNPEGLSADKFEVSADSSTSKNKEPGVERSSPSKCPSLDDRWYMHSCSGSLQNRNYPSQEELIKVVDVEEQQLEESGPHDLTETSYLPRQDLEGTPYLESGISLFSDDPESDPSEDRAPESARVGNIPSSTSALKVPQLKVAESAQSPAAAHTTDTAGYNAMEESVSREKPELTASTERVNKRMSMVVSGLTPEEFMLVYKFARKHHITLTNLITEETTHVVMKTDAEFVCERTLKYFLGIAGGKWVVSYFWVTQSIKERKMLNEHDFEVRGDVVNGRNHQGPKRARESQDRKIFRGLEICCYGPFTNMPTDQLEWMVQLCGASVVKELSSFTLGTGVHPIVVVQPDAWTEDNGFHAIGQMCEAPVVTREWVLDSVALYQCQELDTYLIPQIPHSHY"}, "source": "paper PMC4465499", "biological_target": "BRCA1 (human (endogenous in MCF-7)) (UniProt P38398)", "assay": "co-IP; endogenous BRCA1 precipitated from total cell extract (MCF-7 or HCC1937) with anti-BRCA1 monoclonal antibody overnight, Protein A/G PLUS-Agarose 2 h at 4 C, three washes in lysis buffer (20 mM NaCl, 30 mM KCl, 0.1% DTT, 0.5% Triton X-100); immunoblot with anti-ATF1", "note": "No constants are given. Whether binding was seen depends on the method and setting. Binding seen in cells or lysates may run through a third protein. Some binding calls cover weakened binding; strength is not graded here."}
{"binder": "cyclic AMP-dependent transcription factor ATF1 (protein, UniProt P18846 1-271) MEDSHKSTTSETAPQPGSAVQGAHISHIAQQVSSLSESEESQDSSDSIGSSQKAHGILARRPSYRKILKDLSSEDTRGRKGDGENSGVSAAVTSMSVPTPIYQTSSGQYIAIAPNGALQLASPGTDGVQGLQTLTMTNSGSTQQGTTILQYAQTSDGQQILVPSNQVVVQTASGDMQTYQIRTTPSATSLPQTVVMTSPVTLTSQTTKTDDPQLKREIRLMKNREAARECRRKKKEYVKCLENRVAVLENQNKTLIEELKTLKDLYSNKSV", "values": [{"measurement": "binding", "value": "binds"}]}
